Experimental data published in US9688765B2, “Methods using RANK/RANKL antagonist antibodies for treating pain” (Antecip Bioventures II LLC, priority 2014, dated 2017).
At least one compound was matched to its structure with a doubt left.

Assays:
[1] = tested on: pain associated with arthritis; experiment: Treatment of patient suffering from pain associated with arthritis; type: in vivo, human; conditions: patient two, within 6 months after beginning treatment
[2] = tested on: pain associated with osteoarthritis; experiment: Treatment of patient suffering from pain associated with osteoarthritis; type: in vivo, human; conditions: patient one, within 6 months after beginning treatment
[3] = tested on: RANKL-driven osteoclast differentiation; conditions: cited from earlier work
[4] = tested on: inflammatory pain (mechanical hyperalgesia); experiment: Rat CFA model of inflammatory pain (Randall-Selitto paw compression); type: in vivo, SPRAGUE-DAWLEY rats
[5] = tested on: arthritis pain (mechanical hyperalgesia); experiment: Rat complete Freund's adjuvant (CFA) model of arthritis pain; type: in vivo
Protocol: The effect of RANK/RANKL antagonism on arthritis pain was examined in the rat complete Freund's adjuvant (CFA) model of arthritis pain. In this model, injection of 100% complete Freund's adjuvant (CFA) in a 75 μL volume into the left hind paws is followed by a 10-14 day period to allow for the development of arthritis pain. Animals were orally administered zoledronic acid 9 mg/kg (or 54 mg/m^2), or zoledronic acid 60 mg/kg (or 360 mg/m^2) to produce RANK/RANKL antagonism, divided in three equal daily doses on the first three days post CFA injection, or vehicle (control). Drug was dissolved in distilled water and prepared fresh daily. Animals were fasted prior to dosing.
Arthritis pain (mechanical hyperalgesia) in the vehicle and drug-treated animals was evaluated on day 14 post CFA injection using a digital Randall-Selitto device (dRS; IITC Life Sciences, Woodland Hills, Calif.). […] Paw compression threshold was measured by applying increasing pressure to the plantar surface of the hind paw with a dome-shaped tip placed between the 3rd and 4th metatarsus. […]
Reversal of arthritis pain in the ipsilateral (CFA-injected) paw was calculated according to the formula: % reversal=(ipsilateral drug threshold−ipsilateral vehicle threshold)/(contralateral vehicle threshold−ipsilateral vehicle threshold)×100. […]

CRPS pain (hyperalgesia) = experiment: Rat tibia fracture model of complex regional pain syndrome (von Frey); type: in vivo
OPG protein secretion = conditions: cited from earlier work
[6] = tested on: transmembrane RANKL protein expression; conditions: cited from earlier work

Q: What does the source list for `C=CC(=O)N1CCC[C@@H](n2nc(-c3ccc(Oc4ccccc4)cc3)c3c(N)ncnc32)C1` [IMBRUVICA, ibrutinib]?
A: pain experienced by patient ([1]; 420 mg orally once daily): less pain; pain experienced by patient ([1]; 560 mg orally once daily): less pain; pain experienced by patient ([2]; 420 mg orally once daily): less pain; pain experienced by patient ([2]; 560 mg orally once daily): less pain

Q: For `CC#CC(=O)N1CC[C@@H](n2c(=O)n(-c3ccc(Oc4ccccc4)cc3)c3c(N)ncnc32)C1` [ONO-4059], which IC50 [3] is on record?
A: 853 pM

Q: What about the “inhibition of RANKL-driven osteoclast differentiation” value ([3]; dose-dependent) of the same molecule?
A: 70%

Q: With `O=P(O)(O)C(O)(Cn1ccnc1)P(=O)(O)O` [zoledronic acid] as the molecule, how does the “inflammatory pain thresholds compared to vehicle” value ([4]; oral 3 mg/kg (18 mg/m^2), days 1-4 after CFA) read?
A: significantly improved

Q: And the “paw compression thresholds versus vehicle over time” value ([4]; oral 3 mg/kg, entire measurement period after 30 minutes from the start of treatment)?
A: higher than for vehicle

Q: And the “dose dependence of reversal of arthritis pain” value ([5]; oral 9 and 60 mg/kg)?
A: dose-dependent reversal

Q: What about the “arthritis pain thresholds compared to vehicle” value ([5]; oral, three equal daily doses on first three days post CFA, evaluated day 14) of the same molecule?
A: significantly improved

Q: What about the “reversal of CRPS pain compared to vehicle treatment” value (CRPS pain (hyperalgesia); oral 21 mg/kg on day 29 then 3 mg/kg/day for 3 weeks) of the same molecule?
A: significantly reversed

Q: What about the “reversal of CRPS pain three weeks after dosing” value (CRPS pain (hyperalgesia); oral 21 mg/kg on day 29 then 3 mg/kg/day, three weeks) of the same molecule?
A: complete reversal

Q: And the OPG protein secretion (OPG protein secretion)?
A: markedly increased

Q: And the “transmembrane RANKL protein expression” value [6]?
A: reduced
